59 compounds from PubChem BioAssay AID2685 (National Center for Advancing Translational Sciences (NCATS), 2010) can be followed below.

Each structure is given as a SMILES string. The list shows a part of the results. These are further read-outs of the screen, such as a control signal, another cell line or another target. No call is given for them. Compounds called inactive in the main read-out are mostly missing here. The note in brackets gives the kind of curve behind each potency; many fits are weak.

The assay is described as follows: qHTS Assay for Lipid Storage Modulators in Drosophila S3 Cells.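 For cell number change: cells counted by Cell Tracker Red CMTPX staining in the red channel.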 The conditions noted are these: BODIPY lipid droplet fluorescence, 18-24 h; for cell number change: measured here: cell count max response, cells fed with added oleic acid. The method in brief:
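Drosophila S3 cells loaded with oleic acid (400 uM, as added) and compounds at several concentrations; lipid droplets imaged by 488-nm laser-scanning cytometry, 500–530 nm intensity and object ratio to cell channel. Percent activity normalized to 20 uM Triacsin C.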
On the technique in general: Quantitative high-throughput screening tests each substance at several concentrations.

Where [1] appears, read: measured here: lipid fluorescence (Fed channel) AC50, cells fed with added oleic acid.
[2] abbreviates: measured here: cell number channel AC50, cells fed with added oleic acid.

As for `Cn1c(=O)cc(OCCCC(=O)NCc2ccc3c(c2)OCO3)c2ccccc21`, the cell number change turned out to be 14.7%. For the same compound, the AC50 under setting [1] is 6.51 µM [rising, partial curve].

For the compound `O=C(c1ccco1)N1CCCC(c2nc(-c3ccc(S(=O)(=O)NCc4ccccc4)cc3)no2)C1` (stereo unspecified), the cell number change is -22.7%. Besides, under setting [1], the AC50 was 18.4 µM [falling, single point]. Regarding `CCCOc1ccc(CCc2n[nH]c(=S)n2Cc2ccccc2)cc1`, the cell number change was -68.6%. The AC50 under setting [2] was 16.4 µM [falling, partial curve]. Besides, the AC50 under setting [1] is 18.4 µM [falling, partial curve]. With `COc1ccc(OCC(=O)NNC(=O)C(=O)N2CCCC2)cc1`, the AC50 is 0.82 µM [rising, partial curve, poor fit] under setting [2] and 0.82 µM [rising, partial curve, poor fit] under setting [1]. On to `CCC(=O)CCC(=O)c1ccc2ccccc2c1`, for which the cell number change came out at 18.1%. Consider `Cc1ccc(CCCNC(=O)C2CCC(=O)N(Cc3cccc(F)c3)C2)cc1` (stereo unspecified), for which the cell number change was 17.9%. Further, the AC50 under setting [1] is 3.66 µM [falling, full curve]. Consider `CCN(CC)S(=O)(=O)c1ccc(Cl)c(C(=O)OCC(=O)c2c(N)n(C)c(=O)n(C)c2=O)c1`, for which the cell number change was -51.4%. For the same compound, the AC50 under setting [2] is 9.2 µM [falling, partial curve, poor fit]. The AC50 under setting [1] is 8.2 µM [falling, partial curve]. As for `N/C(=N\OS(=O)(=O)c1ccc(Cl)cc1)c1ccncc1`, the cell number change came out at 93.2%. Besides, under setting [1], the AC50 is 23.1 µM [rising, partial curve]. Consider `COC(=O)c1[nH]c2ccccc2c1NC(=O)CCN1CCN(C2CCCCC2)CC1`, for which the cell number change is -7.11%. Further, under setting [1], the AC50 was 2.06 µM [falling, partial curve, poor fit]. As to `CCOC(=O)C1CCN(C/C=C/c2ccccc2[N+](=O)[O-])CC1`, the cell number change turned out to be 10.8%.

Take `COc1ccc(OCc2cc(C(=O)N(C)Cc3cc(C4CC4)n[nH]3)no2)c(Cl)c1`: the cell number change was -19.1%. The AC50 under setting [2] is 6.51 µM [falling, single point].

Consider `O=C(NC1CC(=O)N(c2ccc3c(c2)OCCO3)C1)N1CCC(O)CC1` (stereo unspecified), for which the cell number change is -25%. Under setting [2], the half-maximal activity concentration (AC50) was 3.66 µM [falling, single point].

Consider `COc1ccc(NC2CCCN(C(=O)CSc3ccncc3)C2)cc1` (stereo unspecified), for which the AC50 under setting [1] was 29.1 µM [falling, single point]. In the case of `CC(C)(CNS(=O)(=O)c1ccc2c(c1)OCCO2)N1CCOCC1`, the AC50 is 6.51 µM [rising, single point] under setting [2] and 6.51 µM [rising, single point] under setting [1]. For the compound `COc1ccc(C)cc1Nc1n[n+](-c2ccccc2)c(-c2ccc(OC)c(OC)c2OC)s1`, the cell number change was -28.5%. With `CCOC(=O)c1sc(N/N=C/c2cc(Br)c(O)c(OC)c2)nc1C`, the cell number change is -1.4%. Also, the AC50 under setting [1] was 5.17 µM [falling, full curve]. For `COc1ccc(CCNC(=O)c2ccc3nc4cc(Cl)ccc4c(=O)n3c2)cc1OC`, the cell number change worked out at 239%. Under setting [2], the AC50 was 29.1 µM [rising, single point]. In addition, the AC50 under setting [1] was 20.6 µM [falling, single point]. Take `COc1ccc(Cl)cc1NC(=O)c1ccc2c(SCC(=O)O)c3c(nc2c1)CCCC3`: the cell number change is -15.6%. Also, under setting [1], the AC50 is 0.259 µM [rising, partial curve, poor fit]. Consider `COc1ccc(NC(=O)c2ccccc2NC(=O)c2ccccc2)cc1`, for which the cell number change came out at 1.92%.

Turning to `CC(C)CC(=O)Nc1nnc(SCC(=O)Nc2ccc3c(c2)OCO3)s1`, the cell number change is 7.78%. Also, the AC50 under setting [1] was 0.058 µM [rising, full curve, poor fit]. In the case of `O=C(Nc1ccccc1Cl)Oc1ccc(Cl)cc1Cl`, the cell number change is -51.8%. Under setting [1], the AC50 was 18.4 µM [falling, single point]. For the compound `COc1ccc(N/C=C(\C#N)c2nc3ccccc3n2C)c(OC)c1`, the cell number change was -8.67%. Also, the AC50 under setting [1] was 0.00517 µM [rising, full curve, poor fit]. Regarding `CCC(C)NCC(=O)Nc1ccc(-c2nc3cc(NC(=O)CNC(C)CC)ccc3o2)cc1` (stereo unspecified), the cell number change was -9.34%. Moreover, under setting [1], the concentration at half-maximal activity (AC50) was 20.6 µM [falling, single point].

On to `CC(C)C[C@@H](CN=[N+]=[N-])N1CCN(C)CCC1=O`, for which the cell number change is -4.21%.

Take `COC(=O)COc1ccc(/C=N/NS(=O)(=O)c2ccccc2)cc1`: the cell number change came out at 20.8%. Moreover, the AC50 under setting [2] is 0.00411 µM [rising, full curve, poor fit]. Moreover, the AC50 under setting [1] was 0.461 µM [rising, full curve, poor fit]. On to `Cc1ccc(C(=O)Nc2cccc(NC(=O)c3ccc(C)c([N+](=O)[O-])c3)n2)cc1[N+](=O)[O-]`, for which the AC50 under setting [1] is 6.51 µM [falling, single point]. Take `COC(=O)c1scc(C)c1N/N=C(\C)c1cc(F)c(Cl)cc1F`: the cell number change was -80.8%. The AC50 under setting [2] was 29.1 µM [falling, single point]. Besides, the AC50 under setting [1] is 29.1 µM [falling, single point]. Consider `CCc1ccccc1NC(=O)c1ccccc1N1C(=O)C2C3C=CC(C3)C2C1=O` (stereo unspecified), for which the cell number change is -2.89%. Consider `CN(C(=O)COC(=O)c1cccc(Cl)c1)C1CCS(=O)(=O)C1` (stereo unspecified), for which the cell number change was 43.3%. For the same compound, the AC50 under setting [2] is 25.9 µM [rising, single point]. Also, the AC50 under setting [1] is 25.9 µM [rising, partial curve, poor fit]. Take `COc1cc(C2NC(=O)c3ccccc3O2)cc(OC)c1OC` (stereo unspecified): the cell number change is 36.9%. The AC50 under setting [2] is 0.0231 µM [rising, full curve, poor fit]. Besides, the AC50 under setting [1] was 29.1 µM [rising, partial curve, poor fit]. On to `Cn1ncc(Cl)c1C(=O)N/N=C/c1ccccn1`, for which the cell number change is -12.1%. As for `O=C(c1ccco1)N1CCN(C(=O)c2cnn(-c3cccc(F)c3)c2C2CCNCC2)CC1`, the cell number change was -0.382%. The same measure, in the same setting: under `Cc1nn(CCCC(=O)O)c(C)c1[N+](=O)[O-]` stands 21.9%. In the case of `O=C(/C=C/c1ccc(O)cc1)c1ccccc1`, the cell number change is -22.8%. Further, under setting [1], the AC50 is 18.4 µM [falling, partial curve, poor fit]. Turning to `CCc1ccc2[nH]c(=O)c(C(c3nnnn3Cc3ccccc3)N3CCOCC3)cc2c1` (stereo unspecified), the cell number change is 0.537%. On to `CC(C)OCCCn1c(=O)c2ccccc2n2c(CCC(=O)NC3CCN(Cc4ccccc4)CC3)nnc12`, for which the cell number change was -19.6%. As to `Cn1c(=O)cc(SCC(=O)N2CCN(c3ccccc3)CC2)c2ccccc21`, the AC50 runs as follows: under setting [2], 0.164 µM [rising, full curve, poor fit]; under setting [1], 0.291 µM [rising, partial curve, poor fit]. With `O=C(CCC1CCN(C(=O)c2cccc(Cl)c2F)CC1)Nc1ccccc1`, the cell number change stood at 13.8%. For `CC1CCCCN1C(=O)COc1ccccc1F` (stereo unspecified), the cell number change was 19%. The AC50 under setting [1] is 0.092 µM [falling, full curve, poor fit]. Take `O=C(Nc1ccc2c(c1)OCO2)N1CCN(c2cccc(C(F)(F)F)c2)CC1`: the AC50 reads like this: under setting [2], 0.82 µM [rising, full curve]; under setting [1], 1.46 µM [rising, partial curve].

Turning to `O=C(NC1CCCCC1)c1cc(-c2ccccc2O)on1`, the cell number change was determined as 35.4%. For the same compound, the AC50 under setting [2] was 13 µM [rising, partial curve]. In addition, the AC50 under setting [1] is 0.116 µM [falling, single point]. Turning to `O=C(NNC(=O)C1CCCC1)c1ccccc1F`, the cell number change worked out at 14.5%. The AC50 under setting [1] was 9.2 µM [rising, partial curve, poor fit].

In the case of `O=C(CSc1nc2ccccc2[nH]1)NCCCn1ccnc1`, the cell number change was -5.21%. In addition, the AC50 under setting [1] was 0.651 µM [rising, full curve, poor fit]. With `COc1ccccc1CNC(=O)C1CCCN1S(=O)(=O)c1cccc2cccnc12` (stereo unspecified), the AC50 runs as follows: under setting [2], 0.00461 µM [rising, full curve, poor fit]; under setting [1], 3.66 µM [rising, partial curve, poor fit].

Take `COc1ccc(/C=C2/SC(=O)N(CCCCCC(=O)Nc3ccccc3C(=O)O)C2=S)cc1`: the cell number change was -32.5%. In addition, under setting [2], the AC50 was 1.84 µM [falling, partial curve, poor fit]. In the case of `CN(C)S(=O)(=O)c1ccc2oc(SCC(=O)Nc3ccccc3F)nc2c1`, the cell number change was -33.7%. The AC50 under setting [2] is 3.66 µM [rising, single point].

Regarding `COc1cc(Cl)ccc1OCc1cc(C(=O)N2CCCC(OC)C2)no1` (stereo unspecified), the cell number change was determined as 11%. Besides, the AC50 under setting [1] is 29.1 µM [rising, single point]. With `COc1ccc(/C=C(/NC(=O)c2cccc([N+](=O)[O-])c2)C(=O)O)cc1OC`, the cell number change was -44.6%. Besides, under setting [1], the AC50 is 29.1 µM [falling, partial curve, poor fit]. As to `Cc1ccc(C(=O)NCC(=O)OCC(=O)Nc2ccc(Cl)cc2C(F)(F)F)cc1C`, the cell number change came to 29%. Under setting [1], the AC50 is 0.92 µM [rising, partial curve]. Turning to `CC(=O)NC1=NN(C(C)=O)C(C)(c2cccc([N+](=O)[O-])c2)S1` (stereo unspecified), the cell number change is -19.7%. Also, the AC50 under setting [2] was 6.51 µM [falling, single point]. For the compound `COc1cc2c(cc1OC)CN(c1nc(CN3CCOCC3)nc3sc4c(c13)CCC(C)C4)CC2` (stereo unspecified), the cell number change was -12.2%. Besides, the AC50 under setting [2] was 0.517 µM [rising, single point]. In addition, the AC50 under setting [1] was 0.146 µM [falling, full curve, poor fit]. With `COC(=O)CCC(=O)Nc1ccc(Cl)c(Cl)c1`, the cell number change came to 0.195%.

As to `CCOC(=O)c1ccc(-c2ccc(/C=N/NC(=O)CN(c3cccc(C)c3)S(C)(=O)=O)o2)cc1`, under setting [1], the concentration at half-maximal activity (AC50) was 0.116 µM [rising, full curve, poor fit]. With `O=C(CCC(=O)c1ccc(F)cc1)Nc1cccc(Br)c1`, the cell number change was found to be 22.6%. In addition, the AC50 under setting [1] was 20.6 µM [rising, single point].

Consider `O=C(O)CCCc1nc(-c2ccc(Cl)cc2)no1`, for which the cell number change amounted to 7.87%.

In the case of `CC1CCN(C(=O)C(C)Sc2nc(-c3ccccc3)cc(C(F)(F)F)n2)CC1` (stereo unspecified), the cell number change is -43.1%. The AC50 under setting [2] was 20.6 µM [falling, single point]. Besides, the AC50 under setting [1] is 1.84 µM [rising, partial curve, poor fit]. Turning to `COc1ccc(NS(=O)(=O)c2ccc(C)c(C(=O)NCC(c3ccco3)N3CCCCC3)c2)cc1` (stereo unspecified), the cell number change turned out to be 140%. In addition, under setting [2], the AC50 is 23.1 µM [rising, single point]. As for `Cc1oc2ccc(O)cc2c1C(=O)c1ccc([N+](=O)[O-])cc1`, the cell number change was -26.1%. For the same compound, the AC50 under setting [1] is 4.61 µM [falling, full curve]. Regarding `Cc1ccc(C(=O)COC(=O)c2cc(Cl)ccc2O)cc1[N+](=O)[O-]`, the cell number change is -3.52%. Further, the AC50 under setting [1] is 32.6 µM [falling, single point].

Broadly, the AC50 is the midpoint of the concentration-response curve, whichever way the signal moves.
